Results from patent publication US12433964B2, “Antiviral and antibacterial disinfection aero-solution using edible food dyes” (Purdue Research Foundation, priority 2020, dated 2025).

Test: Detection of photogenerated singlet oxygen with turn-off fluorescent ABDA radical probe and NaN3 scavenger
Format: physicochemical

Compound: C1=Cc2nc1c(-c1ccccc1)c1ccc([nH]1)c(-c1ccccc1)c1nc(c(-c3ccccc3)c3ccc([nH]3)c2-c2ccccc2)C=C1.[Zn] [ZnTPP, 5,10,15,20-Tetraphenyl-21H,23H-porphine zinc]
- intensity of ABDA fluorescent peaks as irradiation time increases (singlet oxygen generation) (photosensitizer in solution with 20 μM ABDA, green light 530 nm, 0.02 mW mm^−2 (FIG. 3b)): gradually drops
- intensity of ABDA in the presence of singlet oxygen scavenger (with NaN3 scavenger, green light 530 nm (FIG. 3c)): no significant difference
